# In all, about 580,000 compounds went through this assay and about 6,100 (1.1%) were called active. Inconclusive means that the source gave no clear call. Such entries were picked first, then a sample of the others. Calls come from the whole dose curve; as a rule, active = well fitted inhibition curve with a large enough effect; inconclusive = small, poorly fitted or top-dose-only effect, or another doubt; inactive = no such curve, though single readings can be large or run the other way. Where the call is inconclusive, the potency comes from a doubtful curve fit.
# By UniProt entry, the sequences of proteins in these tests, tags left out. Where a name states a change or a piece, a line headed by the entry shows the natural chain unless it says otherwise.
# UniProt P18054: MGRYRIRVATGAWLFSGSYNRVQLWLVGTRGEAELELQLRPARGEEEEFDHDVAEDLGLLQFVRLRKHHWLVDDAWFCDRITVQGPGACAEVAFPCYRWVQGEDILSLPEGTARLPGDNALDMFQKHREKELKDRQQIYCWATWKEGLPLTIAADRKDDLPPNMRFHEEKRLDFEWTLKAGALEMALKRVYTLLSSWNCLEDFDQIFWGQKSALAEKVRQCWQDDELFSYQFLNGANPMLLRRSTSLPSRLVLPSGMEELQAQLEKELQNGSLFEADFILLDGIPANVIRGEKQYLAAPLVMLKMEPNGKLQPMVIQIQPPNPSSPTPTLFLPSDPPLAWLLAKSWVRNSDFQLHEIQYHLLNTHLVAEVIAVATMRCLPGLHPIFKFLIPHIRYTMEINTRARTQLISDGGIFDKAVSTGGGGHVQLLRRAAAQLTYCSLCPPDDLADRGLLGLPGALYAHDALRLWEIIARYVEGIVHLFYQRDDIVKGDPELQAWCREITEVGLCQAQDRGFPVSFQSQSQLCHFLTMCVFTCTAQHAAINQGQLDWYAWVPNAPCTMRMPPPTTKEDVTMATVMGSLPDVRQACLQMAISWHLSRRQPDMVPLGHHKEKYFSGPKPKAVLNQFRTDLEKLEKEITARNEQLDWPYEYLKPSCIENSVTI
# Target: Polyunsaturated fatty acid lipoxygenase ALOX12 (Homo sapiens) (UniProt P18054)
# Assay: Primary qHTS assay for inhibitors of human arachidonate 12S-lipoxygenase (ALOX12): Round 2
# Conditions: purified 12hLO, xylenol orange hydroperoxide absorbance; activity change, negative = inhibition: at 108 µM (top of the series) unless noted
# In short: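 Hydroperoxide product was detected by ferrous iron/xylenol orange as the 573 to 405 nm absorbance ratio. Arachidonic acid at 40 uM (final) was turned over for 30 min at room temperature by 150 nM human 12hLO, pH 7.0 Hepes buffer, after 15 min compound preincubation.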
# % is set by controls: 0 for no effect and ±100 for the full control effect; potency is the fitted concentration of half-maximal effect.
SMILES,"activity change, negative = inhibition",Potency
N#CC(C(=O)NCCc1ccccc1)c1nc2ccccc2nc1N1CCCCC1 (configuration not stated),inactive: 8.94%,–
CN(C)/N=C/c1ccc([N+](=O)[O-])cc1[N+](=O)[O-],inactive: 1.68%,–
CCOc1ccc2nc(N=NC3=C(O)CC(C)(C)CC3=O)sc2c1,inactive: 0.589%,–
CCc1ccc(CNC(=O)c2cc(-c3ccc(Cl)s3)nc3ccccc23)cc1,inactive: -9.16%,–
Cc1ccc2oc(=O)n(CCNC(=O)Nc3ccc(F)cc3)c2c1,–,"inconclusive: 28.2 µM [inhibitor, single point]"
Cc1nc(CN2CCN(CC3(O)CCNC3)CC2)cs1 (configuration not stated),–,"inconclusive: 4.47 µM [inhibitor, full curve, poor fit]"
CCOC(=O)N1CCC(NC(=O)c2ccc3c(c2)N(C)CCS3)CC1,–,"inconclusive: 31.6 µM [inhibitor, full curve, poor fit]"
Cc1cccc(C)c1NC(=O)C1=C(O)c2ccccc2N(C)S1(=O)=O,–,"inconclusive: 39.8 µM [inhibitor, partial curve]"
CC(C)Nc1nc(-c2ccc3c(c2)CCC(=O)N3)cs1,–,"inconclusive: 28.2 µM [inhibitor, full curve, poor fit]"
O=C1NC[C@H](Cc2ccccc2)N(C[C@H]2CCCN2C[C@H](Cc2ccccc2)N2C[C@H](Cc3ccccc3)N(CCc3ccccc3)C(=O)C2=O)C1=O,–,"inconclusive: 50.1 µM [inhibitor, partial curve, poor fit]"
OCCC#Cc1c(-c2ccsc2)sc2ccccc12,–,"inconclusive: 35.5 µM [inhibitor, partial curve, poor fit]"
COc1ccc(-c2ncncc2-c2ccc(OC)c(OC)c2)c(O)c1,–,"inconclusive: 35.5 µM [inhibitor, partial curve, poor fit]"
O=C(c1n[nH]c2ccccc12)N1CC(Oc2ccccc2-c2nc(-c3ccccc3)no2)C1,–,"inconclusive: 50.1 µM [inhibitor, partial curve]"
Cc1ccccc1C(=O)Nc1ccc2c(C#N)c3nc4ccccc4nc3n2c1,–,"inconclusive: 31.6 µM [inhibitor, partial curve]"
Cc1ccc(CNC(=O)c2ccc3c(Cl)c4c(nc3c2)CCCC4)cc1,–,"inconclusive: 39.8 µM [inhibitor, partial curve, poor fit]"
O=C(/C=C/c1ccco1)N1CCN(c2ccc(F)cc2)CC1,–,"inconclusive: 39.8 µM [inhibitor, single point]"
CCNC(=O)CN1CCN(C(=O)CCc2ncc(-c3ccc(Cl)cc3)o2)CC1,–,"inconclusive: 100 µM [inhibitor, single point]"
COCCn1c(=O)c(-c2cccs2)nc2cnc(Nc3ccccc3)nc21,–,"inconclusive: 25.1 µM [inhibitor, single point]"
CCc1nc2ccc(C(=O)Nc3ccc(C(N)=O)cc3)cn2c1N(C)CCC(C)C,–,"inconclusive: 79.4 µM [inhibitor, partial curve, poor fit]"
C[C@H]1COc2cc(NCCO)ccc2S(=O)(=O)N1,–,"inconclusive: 39.8 µM [inhibitor, partial curve, poor fit]"
Cc1ccc(NC(=O)CN2C(=O)CCn3nc(-c4cccn4C)cc32)cc1,–,"inconclusive: 56.2 µM [inhibitor, partial curve, poor fit]"

SMILES,"activity change, negative = inhibition",Potency
CCc1cccc2c(C(=O)O)cc(-c3cc(C)ccc3C)nc12,–,"inconclusive: 39.8 µM [inhibitor, single point]"
O=C(CNCc1ccc(Cl)cc1)Nc1cccc(C(=O)O)c1,–,"inconclusive: 56.2 µM [inhibitor, partial curve, poor fit]"
C(=N\Nc1nc(-c2ccccc2)cs1)/c1cccnc1,–,"inconclusive: 28.2 µM [inhibitor, partial curve, poor fit]"
Cc1ccc2oc(-c3cc(NC(=O)c4ccco4)ccc3Cl)nc2c1,–,"inconclusive: 50.1 µM [inhibitor, partial curve, poor fit]"
CCCCN(C)C(=O)C1CCN(CCCc2ccccc2)CC1,–,"inconclusive: 0.631 µM [inhibitor, full curve, poor fit]"
CC1(c2ccccc2)N(Cc2ccc(O)cc2)C(=O)OC12CCN(Cc1c[nH]c3ccccc13)CC2 (configuration not stated),–,active: 44.7 µM
CCCc1ccc(OCC(=O)NNC(=S)NC(=O)c2ccco2)cc1,–,"inconclusive: 28.2 µM [inhibitor, partial curve, poor fit]"
COc1ccc(C(C)=O)c(OC(=O)/C=C/c2cccs2)c1,–,"inconclusive: 44.7 µM [inhibitor, partial curve, poor fit]"
O=C(N/N=C/c1cc(Br)ccc1OC(=O)c1ccc(Br)cc1)c1ccncc1,inactive: 3.32%,–
Cc1csc2nc(CN3CCN(CC(=O)N(C)C)CC3)cc(=O)n12,–,"inconclusive: 39.8 µM [inhibitor, single point]"
COc1ccc2nc(N/C(=N/S(=O)(=O)c3cccs3)c3ccccc3Cl)sc2c1,–,"inconclusive: 28.2 µM [inhibitor, partial curve]"
CC(O)(C#CCN1CCCCC1)C1CC2C=CC1C2 (configuration not stated),–,"inconclusive: 100 µM [inhibitor, single point]"
CC1(C)C[C@H]2C3=CCC4[C@@]5(C)CC[C@H](O)[C@@](C)(CO)C5CC[C@@]4(C)[C@]3(C)C[C@@H](O)[C@@]2(CO)[C@@H](O)[C@@H]1O (some centres not stated),–,"inconclusive: 63.1 µM [inhibitor, partial curve, poor fit]"
COc1ccc2c(C)cc(=O)oc2c1OCC(O)CN1CCOCC1 (configuration not stated),–,"inconclusive: 79.4 µM [inhibitor, partial curve, poor fit]"
COc1ccc(-c2cc(N3CCCC(NC(=O)c4ccccn4)C3)n[nH]2)cc1 (configuration not stated),inactive: 57.1%,–
O=C(O)/C(=C\c1ccco1)NC(=O)c1ccccc1,inactive: 2.56%,–
C=CCNC(=O)NC(=O)CN(C)Cc1ccc(-c2ccc(Br)cc2)o1,–,"inconclusive: 56.2 µM [inhibitor, partial curve, poor fit]"
Cc1c(C(=O)N2CCC3(CC2)Nc2ccccc2NC3=O)cnc2ccnn12,–,"inconclusive: 112 µM [inhibitor, partial curve, poor fit]"
Cc1ccc(S(=O)(=O)N2CCN(CCC#N)CC2)cc1,–,"inconclusive: 1.58 µM [inhibitor, full curve]"
CC(C)CCNC(=O)NC(=O)CSc1nc2ccccc2c(=O)n1C1CC1,–,"inconclusive: 50.1 µM [inhibitor, partial curve, poor fit]"
CC(=O)n1c(C=Nc2ccc(Cl)cc2)c(O)c2ccccc21,–,"inconclusive: 112 µM [inhibitor, single point]"

# In the list so far, these have an aryl methoxy group.
SMILES,"activity change, negative = inhibition",Potency
COc1ccc(-c2ncncc2-c2ccc(OC)c(OC)c2)c(O)c1,–,"inconclusive: 35.5 µM [inhibitor, partial curve, poor fit]"
COc1ccc(C(C)=O)c(OC(=O)/C=C/c2cccs2)c1,–,"inconclusive: 44.7 µM [inhibitor, partial curve, poor fit]"
COc1ccc2nc(N/C(=N/S(=O)(=O)c3cccs3)c3ccccc3Cl)sc2c1,–,"inconclusive: 28.2 µM [inhibitor, partial curve]"
COc1ccc2c(C)cc(=O)oc2c1OCC(O)CN1CCOCC1 (configuration not stated),–,"inconclusive: 79.4 µM [inhibitor, partial curve, poor fit]"
COc1ccc(-c2cc(N3CCCC(NC(=O)c4ccccn4)C3)n[nH]2)cc1 (configuration not stated),inactive: 57.1%,–

# Sorted by count of non-hydrogen atoms (falling): 3 of the compounds above.
SMILES,"activity change, negative = inhibition",Potency
Cc1ccc2oc(=O)n(CCNC(=O)Nc3ccc(F)cc3)c2c1,–,"inconclusive: 28.2 µM [inhibitor, single point]"
CCCCN(C)C(=O)C1CCN(CCCc2ccccc2)CC1,–,"inconclusive: 0.631 µM [inhibitor, full curve, poor fit]"
CN(C)/N=C/c1ccc([N+](=O)[O-])cc1[N+](=O)[O-],inactive: 1.68%,–

# (further entries)

SMILES,"activity change, negative = inhibition",Potency
CC1(C)CC(=O)C2=C(C1)c1c(ccc3ccccc13)NC2c1ccc(OCC(=O)O)cc1 (configuration not stated),–,"inconclusive: 44.7 µM [inhibitor, partial curve, poor fit]"
O=C(COc1ccc(Cl)cc1)N1CCC(c2nc3ccccc3o2)CC1,–,"inconclusive: 44.7 µM [inhibitor, partial curve]"
Cc1cccc(NC(=O)CC2(C(=O)O)CCCCC2)c1,–,"inconclusive: 112 µM [inhibitor, partial curve, poor fit]"
O=C(NCC(c1ccco1)N1CCc2ccccc21)c1cccc([N+](=O)[O-])c1 (configuration not stated),–,"inconclusive: 50.1 µM [inhibitor, partial curve, poor fit]"
Cc1cccc(N=C2NC(=O)/C(=C/c3cn(C)c4ccccc34)S2)c1,–,"inconclusive: 44.7 µM [inhibitor, partial curve, poor fit]"
Cc1ccc(C(c2ccc([N+](=O)[O-])cc2)c2ccc(C)s2)s1,–,"inconclusive: 79.4 µM [inhibitor, single point]"
CCCCN1C(=O)C(CC(=O)NCc2cccs2)CC(C(=O)N2CCOCC2)=C1C (configuration not stated),–,"inconclusive: 0.501 µM [inhibitor, full curve, poor fit]"
Cc1cc(N2C(=O)c3ccc(C(=O)Nc4ccc(O)cc4C(=O)O)cc3C2=O)no1,–,"inconclusive: 63.1 µM [inhibitor, partial curve, poor fit]"
O=C(Nc1ccc(Cl)c([N+](=O)[O-])c1)c1ccc2c(c1)OCCO2,inactive: -2.54%,–
O=C1C(=O)C(c2ccccc2)C(=O)C1c1ccccc1 (configuration not stated),–,"inconclusive: 35.5 µM [inhibitor, partial curve, poor fit]"
Cc1ccccc1NC(=S)N(Cc1ccco1)C(C)c1ccccn1 (configuration not stated),inactive: 3.76%,–
O=C(Cn1c(C(F)(F)F)nc2ccccc21)c1ccc(Br)cc1,–,"inconclusive: 35.5 µM [inhibitor, full curve, poor fit]"
COc1cc(-c2nc(CC(=O)NC3CCN(Cc4ccccc4)CC3)cs2)cc(OC)c1OC,inactive: -2.49%,–
C[C@H]1[C@H](O)O[C@@H]2O[C@@]3(C)CC[C@@H]4[C@H](C)CC[C@@H]1[C@@]24OO3,inactive: -16.4% [at 57.4 µM],–
CCN1CCC(CCNC(=O)CCC[C@@H]2[C@H]3CCCN4CCC[C@@H](CN2C(C)=O)[C@@H]34)CC1,inactive: 57.8%,–
NC(=O)NC(=O)COC(=O)CCCSc1nc2ccccc2s1,inactive: 7.14%,–
COc1cccc(C(=O)N2CCN(C3CCCCC3)CC2)c1,–,"inconclusive: 0.355 µM [inhibitor, full curve, poor fit]"
Cc1ccc(S(=O)(=O)N2CCN(C)CC2)cc1C,–,"inconclusive: 39.8 µM [inhibitor, partial curve, poor fit]"
Nc1cc(S(=O)(=O)N2CCOCC2)ccc1Oc1ccc(F)cc1,inactive: 3.08%,–
C(=C\c1ccccc1)/CSc1nnc(-c2ccccc2)n1Cc1ccco1,–,"inconclusive: 56.2 µM [inhibitor, partial curve, poor fit]"

# Reference: PubChem BioAssay AID1671190 (National Center for Advancing Translational Sciences (NCATS), 2021)
